The list shows a part of the results.
Key:
Assay in all cases: log2 fold change, soluble protein after heating vs DMSO (PISA); higher = thermal stabilisation; K562 cells, 10 uM, 30 min; active = over 0.2 and 3.5 SD of the protein, either way, in both replicates (recomputed)
[1] = compound: CS(=O)(=O)c1ccc(-c2cnc(N)c(C(=O)Nc3ccccc3)n2)cc1
Method in brief: (§1)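 Thermal stability values are relative to control samples and come from duplicates. They are expressed as log2 fold changes. For measurement, K562 cells (2×10^6 cells/mL) received 10 μM compound for 30 min, and aliquots were heated for 3 min over 48°C-58°C, pooled, and extracted at 4°C in PBS with 0.5% NP-40. Soluble protein, the supernatant after 21,000xg for 90 min, was quantified by TMTpro 16plex LC-MS/MS with equalised channel sums.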

Chains of the proteins cited; added tags and fusions are not shown. Lines headed by an entry give the natural chain unless they say otherwise; changes in a name come on top.
UniProt Q9Y4G6: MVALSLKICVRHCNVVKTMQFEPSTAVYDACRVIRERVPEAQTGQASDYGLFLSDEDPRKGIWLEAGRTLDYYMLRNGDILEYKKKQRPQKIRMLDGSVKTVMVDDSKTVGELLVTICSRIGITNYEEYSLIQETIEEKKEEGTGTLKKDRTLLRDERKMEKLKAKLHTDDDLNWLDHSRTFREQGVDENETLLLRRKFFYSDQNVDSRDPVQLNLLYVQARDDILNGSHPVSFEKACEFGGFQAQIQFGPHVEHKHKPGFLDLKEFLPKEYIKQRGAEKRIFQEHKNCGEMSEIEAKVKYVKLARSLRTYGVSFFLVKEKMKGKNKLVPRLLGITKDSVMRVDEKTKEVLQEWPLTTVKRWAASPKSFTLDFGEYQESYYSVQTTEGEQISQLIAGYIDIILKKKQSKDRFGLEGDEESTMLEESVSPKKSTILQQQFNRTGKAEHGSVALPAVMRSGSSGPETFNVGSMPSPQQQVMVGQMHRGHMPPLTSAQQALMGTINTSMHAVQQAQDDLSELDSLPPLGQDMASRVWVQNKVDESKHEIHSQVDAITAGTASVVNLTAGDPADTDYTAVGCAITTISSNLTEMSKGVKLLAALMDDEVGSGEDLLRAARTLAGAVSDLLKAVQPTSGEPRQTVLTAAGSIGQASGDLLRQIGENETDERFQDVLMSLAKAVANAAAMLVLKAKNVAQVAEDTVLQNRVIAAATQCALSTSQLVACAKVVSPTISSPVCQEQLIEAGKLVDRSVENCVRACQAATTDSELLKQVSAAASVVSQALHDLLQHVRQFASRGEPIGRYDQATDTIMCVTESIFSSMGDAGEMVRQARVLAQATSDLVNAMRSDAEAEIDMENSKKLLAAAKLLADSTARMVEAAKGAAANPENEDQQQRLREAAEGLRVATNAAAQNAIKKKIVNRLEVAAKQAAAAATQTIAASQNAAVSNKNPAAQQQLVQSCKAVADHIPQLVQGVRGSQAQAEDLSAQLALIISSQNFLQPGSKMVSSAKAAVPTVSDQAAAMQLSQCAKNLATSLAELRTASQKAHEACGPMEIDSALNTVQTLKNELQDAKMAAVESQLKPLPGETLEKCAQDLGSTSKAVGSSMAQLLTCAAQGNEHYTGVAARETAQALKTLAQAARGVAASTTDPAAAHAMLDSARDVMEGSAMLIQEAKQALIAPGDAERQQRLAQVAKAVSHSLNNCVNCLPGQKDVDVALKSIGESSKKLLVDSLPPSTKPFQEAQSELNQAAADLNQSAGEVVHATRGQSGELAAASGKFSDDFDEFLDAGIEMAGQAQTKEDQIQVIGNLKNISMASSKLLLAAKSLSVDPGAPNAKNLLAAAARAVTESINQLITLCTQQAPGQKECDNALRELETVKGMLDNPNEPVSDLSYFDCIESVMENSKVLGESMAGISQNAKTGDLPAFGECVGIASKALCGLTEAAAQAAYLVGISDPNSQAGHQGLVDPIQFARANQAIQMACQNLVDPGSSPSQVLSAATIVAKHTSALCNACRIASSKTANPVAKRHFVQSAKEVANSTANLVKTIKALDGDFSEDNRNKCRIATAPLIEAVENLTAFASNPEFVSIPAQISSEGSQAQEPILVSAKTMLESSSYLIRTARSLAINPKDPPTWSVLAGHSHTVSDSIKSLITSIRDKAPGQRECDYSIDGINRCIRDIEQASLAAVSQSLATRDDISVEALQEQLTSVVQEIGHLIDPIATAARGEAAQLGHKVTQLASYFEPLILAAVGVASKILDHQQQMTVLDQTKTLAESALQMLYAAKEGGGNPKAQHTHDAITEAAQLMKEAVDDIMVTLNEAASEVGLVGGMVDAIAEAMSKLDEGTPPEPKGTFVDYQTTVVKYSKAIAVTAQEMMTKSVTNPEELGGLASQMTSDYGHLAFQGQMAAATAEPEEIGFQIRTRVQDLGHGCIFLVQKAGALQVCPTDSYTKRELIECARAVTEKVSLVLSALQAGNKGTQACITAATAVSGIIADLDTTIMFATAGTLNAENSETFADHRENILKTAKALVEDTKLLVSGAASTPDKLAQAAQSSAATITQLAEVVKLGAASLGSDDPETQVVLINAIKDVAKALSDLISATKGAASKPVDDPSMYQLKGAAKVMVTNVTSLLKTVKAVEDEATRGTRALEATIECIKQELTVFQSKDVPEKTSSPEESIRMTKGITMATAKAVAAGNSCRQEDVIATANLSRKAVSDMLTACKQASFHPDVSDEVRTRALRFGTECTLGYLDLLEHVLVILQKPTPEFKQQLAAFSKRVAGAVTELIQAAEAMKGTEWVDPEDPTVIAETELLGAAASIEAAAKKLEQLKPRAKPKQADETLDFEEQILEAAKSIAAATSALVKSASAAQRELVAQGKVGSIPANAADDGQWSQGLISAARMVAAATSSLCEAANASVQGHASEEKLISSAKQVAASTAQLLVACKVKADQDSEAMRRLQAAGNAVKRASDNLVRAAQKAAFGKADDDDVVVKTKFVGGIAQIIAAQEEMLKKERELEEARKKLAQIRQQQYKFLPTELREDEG
UniProt Q96A57: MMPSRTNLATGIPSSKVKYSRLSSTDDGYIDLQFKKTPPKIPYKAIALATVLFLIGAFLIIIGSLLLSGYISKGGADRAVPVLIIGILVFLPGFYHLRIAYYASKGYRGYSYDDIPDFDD
UniProt Q6UW68: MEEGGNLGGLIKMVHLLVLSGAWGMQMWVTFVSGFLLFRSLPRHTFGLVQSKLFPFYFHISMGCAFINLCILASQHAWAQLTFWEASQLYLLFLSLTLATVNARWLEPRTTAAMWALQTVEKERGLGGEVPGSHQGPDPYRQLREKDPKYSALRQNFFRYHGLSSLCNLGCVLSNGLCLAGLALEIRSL
UniProt Q8NDZ6: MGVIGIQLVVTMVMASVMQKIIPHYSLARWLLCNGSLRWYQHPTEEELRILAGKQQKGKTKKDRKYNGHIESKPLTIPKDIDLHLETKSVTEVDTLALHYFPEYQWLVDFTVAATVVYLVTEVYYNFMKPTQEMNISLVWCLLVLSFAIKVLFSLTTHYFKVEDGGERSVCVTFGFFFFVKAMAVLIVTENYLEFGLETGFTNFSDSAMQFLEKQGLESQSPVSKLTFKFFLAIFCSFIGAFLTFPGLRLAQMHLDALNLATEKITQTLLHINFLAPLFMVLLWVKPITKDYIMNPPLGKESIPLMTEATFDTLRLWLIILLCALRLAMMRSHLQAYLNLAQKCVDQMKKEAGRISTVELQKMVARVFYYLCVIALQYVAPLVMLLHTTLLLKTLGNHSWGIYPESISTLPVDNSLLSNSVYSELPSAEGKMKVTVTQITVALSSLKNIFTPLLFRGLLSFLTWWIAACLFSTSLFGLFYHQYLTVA
UniProt Q9BTX3: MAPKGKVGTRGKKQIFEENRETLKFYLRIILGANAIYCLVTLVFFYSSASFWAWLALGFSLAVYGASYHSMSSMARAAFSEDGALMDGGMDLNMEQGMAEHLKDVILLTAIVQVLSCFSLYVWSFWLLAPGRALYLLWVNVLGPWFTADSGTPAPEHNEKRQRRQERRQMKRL
UniProt Q15363: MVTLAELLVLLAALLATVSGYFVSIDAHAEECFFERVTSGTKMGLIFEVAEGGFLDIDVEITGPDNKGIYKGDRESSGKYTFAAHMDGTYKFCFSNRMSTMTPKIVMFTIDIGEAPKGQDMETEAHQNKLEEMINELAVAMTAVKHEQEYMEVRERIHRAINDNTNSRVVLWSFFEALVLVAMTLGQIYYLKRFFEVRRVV
UniProt Q9BZW5, whole entry, looked up: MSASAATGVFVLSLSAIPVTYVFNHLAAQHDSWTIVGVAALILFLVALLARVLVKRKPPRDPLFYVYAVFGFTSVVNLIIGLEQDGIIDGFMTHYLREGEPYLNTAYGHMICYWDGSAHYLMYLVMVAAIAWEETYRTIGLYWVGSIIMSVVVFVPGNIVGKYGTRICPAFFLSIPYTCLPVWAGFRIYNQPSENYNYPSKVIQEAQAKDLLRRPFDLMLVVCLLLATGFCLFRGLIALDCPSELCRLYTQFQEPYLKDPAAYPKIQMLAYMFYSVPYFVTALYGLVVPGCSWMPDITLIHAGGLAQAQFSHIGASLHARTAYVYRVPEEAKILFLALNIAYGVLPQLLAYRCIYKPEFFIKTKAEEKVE
UniProt Q9NV96: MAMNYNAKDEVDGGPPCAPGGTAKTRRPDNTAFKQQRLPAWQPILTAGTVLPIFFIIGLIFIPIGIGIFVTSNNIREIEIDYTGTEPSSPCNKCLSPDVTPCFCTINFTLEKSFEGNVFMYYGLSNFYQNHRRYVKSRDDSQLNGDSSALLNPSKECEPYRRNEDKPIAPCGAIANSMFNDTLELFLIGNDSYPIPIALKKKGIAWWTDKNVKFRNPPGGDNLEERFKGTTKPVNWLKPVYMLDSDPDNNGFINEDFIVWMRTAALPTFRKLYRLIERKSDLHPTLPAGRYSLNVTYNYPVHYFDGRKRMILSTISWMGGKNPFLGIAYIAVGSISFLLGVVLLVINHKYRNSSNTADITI
UniProt Q9UKI8: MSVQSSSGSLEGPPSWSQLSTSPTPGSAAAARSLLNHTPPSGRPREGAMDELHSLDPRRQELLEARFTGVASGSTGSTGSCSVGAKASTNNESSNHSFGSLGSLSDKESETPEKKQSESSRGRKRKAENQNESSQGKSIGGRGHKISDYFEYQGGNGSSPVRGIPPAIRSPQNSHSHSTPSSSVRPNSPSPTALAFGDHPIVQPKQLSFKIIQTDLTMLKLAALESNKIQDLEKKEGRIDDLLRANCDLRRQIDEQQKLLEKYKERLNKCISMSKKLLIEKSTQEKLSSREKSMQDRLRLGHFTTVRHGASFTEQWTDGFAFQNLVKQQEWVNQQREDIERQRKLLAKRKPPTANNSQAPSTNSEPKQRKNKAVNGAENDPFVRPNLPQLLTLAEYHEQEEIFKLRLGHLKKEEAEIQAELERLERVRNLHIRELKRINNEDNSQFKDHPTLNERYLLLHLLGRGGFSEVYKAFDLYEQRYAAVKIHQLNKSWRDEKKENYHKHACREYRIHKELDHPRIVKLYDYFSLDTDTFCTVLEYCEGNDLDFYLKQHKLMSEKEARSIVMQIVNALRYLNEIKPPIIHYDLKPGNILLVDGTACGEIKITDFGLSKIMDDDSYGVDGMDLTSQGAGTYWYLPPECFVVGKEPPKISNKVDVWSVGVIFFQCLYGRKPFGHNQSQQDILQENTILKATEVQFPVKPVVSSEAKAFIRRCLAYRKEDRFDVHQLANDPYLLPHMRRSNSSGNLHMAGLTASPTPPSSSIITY
UniProt O00220, whole entry, looked up: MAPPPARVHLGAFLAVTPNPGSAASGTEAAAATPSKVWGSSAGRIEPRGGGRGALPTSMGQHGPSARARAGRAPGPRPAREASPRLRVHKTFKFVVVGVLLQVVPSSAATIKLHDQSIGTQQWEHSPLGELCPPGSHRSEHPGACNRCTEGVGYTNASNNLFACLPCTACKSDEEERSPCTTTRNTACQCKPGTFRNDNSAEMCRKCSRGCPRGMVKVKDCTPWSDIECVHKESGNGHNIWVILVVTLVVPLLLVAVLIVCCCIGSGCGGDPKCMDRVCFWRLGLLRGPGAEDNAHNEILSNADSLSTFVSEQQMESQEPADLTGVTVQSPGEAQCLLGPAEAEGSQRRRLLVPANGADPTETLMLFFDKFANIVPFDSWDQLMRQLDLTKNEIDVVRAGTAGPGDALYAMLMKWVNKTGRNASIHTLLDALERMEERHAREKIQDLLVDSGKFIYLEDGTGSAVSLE
UniProt O14763, whole entry, looked up: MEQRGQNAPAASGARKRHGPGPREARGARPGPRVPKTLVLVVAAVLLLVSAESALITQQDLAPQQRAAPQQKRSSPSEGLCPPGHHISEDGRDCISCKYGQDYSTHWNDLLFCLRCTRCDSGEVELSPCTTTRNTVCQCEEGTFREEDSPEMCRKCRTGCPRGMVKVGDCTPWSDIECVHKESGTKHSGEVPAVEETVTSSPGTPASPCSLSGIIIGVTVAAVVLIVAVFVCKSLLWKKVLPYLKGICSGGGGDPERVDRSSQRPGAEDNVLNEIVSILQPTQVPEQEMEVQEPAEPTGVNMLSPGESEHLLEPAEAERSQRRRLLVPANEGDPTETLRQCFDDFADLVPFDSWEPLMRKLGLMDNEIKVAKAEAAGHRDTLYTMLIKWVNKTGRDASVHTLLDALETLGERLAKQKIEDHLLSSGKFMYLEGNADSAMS
UniProt Q6PI78: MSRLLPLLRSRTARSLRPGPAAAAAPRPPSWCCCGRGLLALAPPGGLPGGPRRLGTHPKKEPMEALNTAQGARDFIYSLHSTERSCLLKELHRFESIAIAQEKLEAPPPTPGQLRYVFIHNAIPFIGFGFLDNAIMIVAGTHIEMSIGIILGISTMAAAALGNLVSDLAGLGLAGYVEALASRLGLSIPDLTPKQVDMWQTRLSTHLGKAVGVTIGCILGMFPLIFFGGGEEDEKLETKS
UniProt Q96B77: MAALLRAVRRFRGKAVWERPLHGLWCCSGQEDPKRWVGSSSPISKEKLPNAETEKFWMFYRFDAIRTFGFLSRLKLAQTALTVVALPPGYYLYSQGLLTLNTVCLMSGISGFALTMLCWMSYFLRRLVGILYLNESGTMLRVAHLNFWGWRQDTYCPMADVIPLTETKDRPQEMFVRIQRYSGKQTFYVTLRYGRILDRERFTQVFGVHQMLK

[2] = compound: C[C@@H](Oc1cc(-c2cnn(C3CCNCC3)c2)cnc1N)c1c(Cl)ccc(F)c1Cl [crizotinib]
Method in brief: as §1

[3] = compound: C[C@@H]1COCCN1C2=NC(=NC(=C2)C3(CC3)S(=O)(=O)C)C4=C5C=CNC5=CC=C4
Method in brief: as §1

[4] = compound: C[C@H](C1=CC=C(C=C1)C(=O)NC2=C3C=CNC3=NC=C2)N
Method in brief: as §1

[5] = compound: C[C@H](Nc1ncnc2nc[nH]c12)c1cc2cccc(Cl)c2c(=O)n1-c1ccccc1 [duvelisib]
Method in brief: as §1

[6] = compound: Cc1cc(Nc2cc(CN3CCOCC3)c3nc(C)c(Cc4ccc(Cl)cc4F)n3n2)n[nH]1 [gandotinib]
Method in brief: as §1

[7] = compound: Cc1cc(Nc2cc(N3CCN(C)CC3)nc(Sc3ccc(NC(=O)C4CC4)cc3)n2)n[nH]1 [tozasertib]
Method in brief: as §1

[8] = compound: Cc1cc(SCc2sc(-c3ccc(C(F)(F)F)cc3)nc2C)ccc1OCC(=O)O
Method in brief: as §1

[9] = compound: Cc1ccc(-n2nc(C(C)(C)C)cc2NC(=O)Nc2ccc(OCCN3CCOCC3)c3ccccc23)cc1 [doramapimod]
Method in brief: as §1

[10] = compound: Cc1ccc(C(=O)N(CCCN)[C@@H](c2nc3cc(Cl)ccc3c(=O)n2Cc2ccccc2)C(C)C)cc1 [ispinesib]
Method in brief: as §1

[11] = compound: Cc1ccc(NC(=O)c2ccc(CN3CC[C@H](N(C)C)C3)c(C(F)(F)F)c2)cc1Nc1nccc(-c2cncnc2)n1 [bafetinib]
Method in brief: as §1

[12] = compound: Cc1cccc(CC(=O)N2CCc3c2ccc(-c2cn(C)c4ncnc(N)c24)c3F)n1
Method in brief: as §1

[13] = compound: Cc1cn(-c2cc(NC(=O)c3ccc(C)c(Nc4nccc(-c5cccnc5)n4)c3)cc(C(F)(F)F)c2)cn1 [nilotinib]
Method in brief: as §1

[14] = compound: Cc1nc(Nc2n[nH]c3c2CN(C(=O)N[C@H](CN(C)C)c2ccccc2)C3(C)C)c2sccc2n1
Method in brief: as §1

[15] = compound: Cc1nc(Nc2ncc(C(=O)Nc3c(C)cccc3Cl)s2)cc(N2CCN(CCO)CC2)n1 [dasatinib]
Method in brief: as §1

[16] = compound: Cc1ncc(-c2ccnc(Nc3ccc(S(C)(=O)=O)cc3)n2)n1C(C)C
Method in brief: as §1

[17] = compound: Cn1cc(-c2ccc3c(c2)CCN3C(=O)Cc2cccc(C(F)(F)F)c2)c2c(N)ncnc21
Method in brief: as §1

[18] = compound: Cn1cc(-c2ccc3nnc(C(F)(F)c4ccc5ncccc5c4)n3n2)cn1
Method in brief: as §1

[19] = compound: Cn1cncc1[C@@](N)(c1ccc(Cl)cc1)c1ccc2c(c1)c(-c1cccc(Cl)c1)cc(=O)n2C [tipifarnib]
Method in brief: as §1

[20] = compound: FC(F)(F)c1ccc(/C=C/c2nc(COc3ccc(CCCCn4ccnn4)cc3)co2)cc1 [mubritinib]
Method in brief: as §1

Measured: log2 fold change

TLN2 (UniProt Q9Y4G6)
inactive: [1] -0.029 | [2] -0.002 | [3] 0.044 | [4] -0.008 | [5] -0.071 | [6] 0.02 | [7] 0.028 | [8] 0.043 | [9] -0.008 | [10] -0.117 | [11] 0.164 | [12] 0.024 | [13] -0.055 | [14] 0.045 | [15] 0.002 | [16] -0.042 | [17] 0.046 | [18] 0.003 | [19] -0.039 | [20] -0.062

TMEM230 isoform 2 (UniProt Q96A57)
inactive: [1] -0.038 | [2] 0.024 | [3] 0.006 | [4] -0.168 | [5] 0.013 | [6] -0.026 | [7] -0.071 | [8] -0.021 | [9] -0.066 | [10] -0.02 | [11] 0.204 | [12] 0.003 | [13] 0.024 | [14] 0.014 | [15] 0 | [16] 0.003 | [17] 0.06 | [18] 0.005 | [19] 0.044 | [20] 0.041

TMEM205 (UniProt Q6UW68)
inactive: [1] -0.047 | [2] 0.122 | [3] 0.201 | [4] -0.162 | [5] 0.063 | [6] 0.215 | [7] 0.046 | [8] -0.098 | [9] -0.12 | [10] 0.044 | [11] -0.162 | [12] 0.2 | [13] 0.331 | [14] -0.108 | [15] -0.139 | [16] -0.137 | [17] 0.054 | [18] 0.066 | [19] 0.15 | [20] 0.116

Quoted from the results shown (two entries):
TLN2 (UniProt Q9Y4G6)
inactive: [1] -0.029 | [2] -0.002 | [3] 0.044 | [4] -0.008 | [5] -0.071 | [6] 0.02 | [7] 0.028 | [8] 0.043 | [9] -0.008 | [10] -0.117 | [11] 0.164 | [12] 0.024 | [13] -0.055 | [14] 0.045 | [15] 0.002 | [16] -0.042 | [17] 0.046 | [18] 0.003 | [19] -0.039 | [20] -0.062

TMEM230 isoform 2 (UniProt Q96A57)
inactive: [1] -0.038 | [2] 0.024 | [3] 0.006 | [4] -0.168 | [5] 0.013 | [6] -0.026 | [7] -0.071 | [8] -0.021 | [9] -0.066 | [10] -0.02 | [11] 0.204 | [12] 0.003 | [13] 0.024 | [14] 0.014 | [15] 0 | [16] 0.003 | [17] 0.06 | [18] 0.005 | [19] 0.044 | [20] 0.041

Going on with the list:

TMEM161B (UniProt Q8NDZ6)
active: [15] -0.273
inactive: [1] 0.026 | [2] -0.096 | [3] 0.004 | [4] 0.002 | [6] -0.156 | [8] 0.11 | [9] -0.024 | [10] -0.055 | [11] -0.01 | [12] 0.073 | [13] -0.148 | [14] -0.018 | [16] -0.046 | [17] -0.08 | [18] 0.103 | [19] -0.043 | [20] 0.036

TMEM208 (UniProt Q9BTX3)
inactive: [1] -0.09 | [2] -0.119 | [3] 0.134 | [4] -0.004 | [6] 0.086 | [8] 0.076 | [9] 0.019 | [10] -0.243 | [11] -0.131 | [12] 0.097 | [13] -0.101 | [14] 0.092 | [15] -0.19 | [16] 0.185 | [17] -0.024 | [18] 0.01 | [19] -0.223 | [20] 0.062

TLK2 isoform 2 (UniProt Q86UE8)
inactive: [1] -0.063 | [2] -0.031 | [3] 0.139 | [4] -0.095 | [6] 0.165 | [8] -0.07 | [9] -0.042 | [10] 0.019 | [11] -0.051 | [12] -0.042 | [13] 0.006 | [15] -0.01 | [16] 0.007 | [17] 0.046 | [18] -0.033 | [19] 0.01 | [20] -0.001
active: [14] -0.407

TMED2 (UniProt Q15363)
inactive: [1] 0.015 | [2] 0.02 | [3] 0.045 | [4] -0.007 | [5] 0.01 | [6] -0.006 | [7] -0.027 | [8] 0.008 | [9] 0.058 | [10] 0.002 | [11] -0.025 | [12] 0.006 | [13] -0.007 | [14] 0.005 | [15] 0.062 | [16] 0.02 | [17] 0.062 | [18] 0 | [19] -0.022 | [20] 0.033

TNFAIP8 isoform 4 (UniProt O95379)
inactive: [1] 0.005 | [2] 0 | [3] 0.122 | [4] -0.099 | [6] -0.073 | [8] -0.046 | [9] -0.016 | [10] -0.046 | [11] -0.079 | [12] 0.014 | [13] -0.045 | [14] -0.095 | [15] -0.109 | [16] 0.007 | [17] 0.047 | [18] 0.005 | [19] -0.023 | [20] 0.031

TM6SF1 (UniProt Q9BZW5)
inactive: [1] 0.027 | [2] 0.113 | [3] -0.013 | [4] 0.173 | [5] -0.159 | [6] -0.034 | [7] 0 | [8] 0.004 | [9] -0.024 | [10] 0.114 | [12] 0.03 | [13] -0.031 | [14] -0.002 | [15] -0.021 | [16] -0.071 | [17] 0.101 | [18] -0.06 | [19] 0.013 | [20] -0.04

TMEM185B (UniProt Q9H7F4)
inactive: [1] 0.145 | [2] 0.01 | [3] -0.003 | [4] 0.015 | [5] 0.137 | [6] 0.027 | [7] 0.018 | [8] 0.005 | [9] -0.068 | [10] -0.179 | [11] -0.093 | [12] -0.004 | [13] 0.002 | [14] -0.041 | [15] 0.001 | [16] 0.152 | [17] -0.035 | [18] 0.01 | [19] -0.057 | [20] 0.057

TMEM30A (UniProt Q9NV96)
inactive: [1] 0.097 | [2] -0.08 | [3] 0.072 | [4] -0.053 | [5] 0.081 | [6] 0.019 | [7] 0.045 | [8] -0.002 | [9] 0.087 | [10] -0.012 | [11] -0.035 | [12] 0.024 | [13] 0.015 | [14] 0.046 | [15] -0.013 | [16] 0.013 | [17] 0.011 | [18] 0.013 | [19] 0.025 | [20] -0.004

TLK1 (UniProt Q9UKI8)
inactive: [1] -0.058 | [2] -0.008 | [3] 0.101 | [4] -0.028 | [6] 0.145 | [8] 0.028 | [9] -0.023 | [10] 0.026 | [11] -0.071 | [12] 0 | [13] -0.073 | [15] -0.028 | [16] 0.007 | [17] 0.06 | [18] 0.026 | [19] 0.01 | [20] 0.011
active: [14] -0.399

TMEM126B (UniProt Q8IUX1)
inactive: [1] -0.085 | [2] -0.029 | [3] 0.064 | [4] -0.024 | [5] 0.086 | [6] -0.023 | [7] -0.013 | [8] -0.051 | [9] -0.026 | [10] -0.071 | [11] -0.036 | [12] 0.051 | [13] 0.023 | [14] 0 | [15] 0.013 | [16] 0.047 | [17] 0.075 | [18] 0.005 | [20] 0.017

TNFRSF10A (UniProt O00220)
inactive: [1] -0.008 | [2] 0.037 | [3] 0.047 | [4] -0.073 | [6] 0.019 | [8] -0.019 | [9] -0.023 | [10] -0.075 | [11] -0.044 | [12] -0.051 | [13] 0.061 | [14] -0.055 | [15] -0.015 | [16] 0.058 | [17] -0.082 | [18] -0.005 | [19] -0.054 | [20] -0.05

TNFRSF10B (UniProt O14763)
inactive: [1] 0.016 | [2] 0.094 | [3] 0.073 | [4] 0.025 | [5] 0.21 | [6] -0.114 | [7] -0.254 | [8] -0.024 | [9] 0.014 | [11] 0.065 | [12] 0.03 | [13] 0.003 | [14] 0.086 | [15] 0.058 | [16] 0 | [17] -0.013 | [19] 0.047 | [20] 0.105

TMEM65 (UniProt Q6PI78)
inactive: [1] -0.075 | [2] 0.036 | [3] 0.267 | [4] -0.07 | [5] 0.087 | [6] 0.001 | [7] 0.029 | [8] -0.042 | [9] 0.195 | [10] -0.094 | [11] -0.014 | [12] -0.022 | [13] 0.053 | [14] -0.039 | [15] 0.006 | [16] -0.033 | [17] 0.095 | [18] 0.093 | [19] 0.161 | [20] 0.05

TMEM186 (UniProt Q96B77)
inactive: [1] -0.07 | [2] -0.005 | [3] -0.039 | [4] -0.086 | [5] -0.022 | [7] 0.003 | [8] -0.083 | [9] 0.049 | [10] -0.079 | [11] -0.011 | [13] -0.082 | [14] 0.005 | [15] 0.059 | [16] 0.09 | [17] -0.007 | [18] 0.033 | [19] 0.046 | [20] 0.049
